The target in the assay is p62 (mouse (endogenous in HT22)) (UniProt Q64337). Put plainly: co-IP; total lysates of HT22 cells immunoprecipitated with p62 antibody or IgG control overnight at 4 °C, protein A/G plus agarose, western blot; cells with or without CoCl2 and GAS (GAS reduced the binding).

By UniProt entry, the sequences of proteins in these tests, tags left out.
UniProt P11798: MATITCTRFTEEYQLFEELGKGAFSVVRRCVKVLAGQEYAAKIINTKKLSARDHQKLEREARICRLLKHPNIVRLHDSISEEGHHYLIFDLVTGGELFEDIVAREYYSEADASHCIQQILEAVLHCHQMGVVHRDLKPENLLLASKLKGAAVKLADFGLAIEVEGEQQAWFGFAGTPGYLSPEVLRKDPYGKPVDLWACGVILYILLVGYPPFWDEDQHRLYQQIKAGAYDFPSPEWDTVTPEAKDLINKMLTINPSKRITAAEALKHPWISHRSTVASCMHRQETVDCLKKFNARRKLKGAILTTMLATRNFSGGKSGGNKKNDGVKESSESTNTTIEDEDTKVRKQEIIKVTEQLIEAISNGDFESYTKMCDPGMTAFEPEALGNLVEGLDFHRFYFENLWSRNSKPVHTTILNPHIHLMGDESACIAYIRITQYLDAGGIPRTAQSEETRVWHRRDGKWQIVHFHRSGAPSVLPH

No constants are given. Whether binding was seen depends on the method and setting. In cells and extracts the contact can be indirect. Some results given as binding are weak or reduced against the parent protein; the word gives no strength.

Take “CaMKIIα (Ca2+-calmodulin stimulated protein kinase II alpha) (from UniProt P11798 1-478) (enzyme)”: the binding result is given as “binds”.
